Measurements: PubChem BioAssay AID588499 (NMMLSC, 2011)
In all, about 360,000 compounds went through this assay and about 610 (0.17%) were called active. This list was built around the results that the source calls inconclusive (neither active nor inactive); the mix of calls is not that of the screen. Cut-off read from the data, not from the text of the source: active = inhibition above about 30%; inconclusive = no clear call, values can overlap the other calls; inactive = below that.

Each compound was assayed on Botulinum neurotoxin type A light chain protease (Clostridium botulinum A str. ATCC 3502) (assay: blockers of BoNT/A LC substrate cleavage – biochemical, flow cytometry, MLPCN library, primary screen (AID 588499; note: plate controls were buffer without enzyme for full effect and enzyme alone for no effect)). Settings: multiplex microsphere protease substrate cleavage, at 10 µM, hits give high values.
`O=C(NC1CCCC1)C1(c2ccccc2)CCN(S(=O)(=O)c2ccccc2)CC1` was tested, and the inhibition was inconclusive: -1%.
`CCCOc1ccc(C(=O)NC(C)C(=O)O)cc1` (stereo unspecified) was tested, and the inhibition was inactive: -2.7%.
`Cc1cn(C2OC(COC(=O)c3ccccc3)C(OC(=O)c3ccccc3)C2OC(=O)c2ccccc2)c(=O)[nH]c1=O` (stereo unspecified) was tested, and the inhibition was inconclusive: -0.3%.
`c1nc(N2CCCC2)c2[nH]cnc2n1` was tested, and the inhibition was inconclusive: -0.8%.
In the case of `CC1(C)C2([N+](=O)[O-])CN3CC1([N+](=O)[O-])CN(C2)C31CCCC1`, the inhibition is reported as inconclusive: -7.2%.
With `CC(C)CC(=O)N1CCC(O)(CS(=O)(=O)Cc2ccccc2Cl)CC1` the inhibition was inconclusive: -1.4%.
`CCOC(=O)C(C)Sc1ncnc2nc[nH]c12` (stereo unspecified) was tested, and the inhibition was inconclusive: -3%.
`COc1cc(Cl)c(NC2=CC(=O)C(=O)c3ccccc32)c(OC)c1` was tested, and the inhibition was inactive: 0.1%.
With `COc1cc(NC(=O)CSc2nnc(-c3cc(C)on3)o2)cc(OC)c1` the inhibition was inactive: -1.7%.
For `CCCc1nc(SCC(=O)c2ccc(OC)cc2)c2ccccc2n1`, the inhibition was inactive: 0.4%.
`CC(C)CC(=O)N/C(N)=N/c1nc2ccccc2o1` was tested, and the inhibition was inconclusive: 4.7%.
For `CCN(CC)C(=O)c1nc[nH]c1C(=O)N1CCc2ccccc2C1`, the inhibition was inactive: -0.1%.
For `CCC(=O)c1cc2c(cc1NC(=O)c1ccc(C)cc1)OCCO2`, the inhibition was inconclusive: 2.8%.
`c1ccc(CCN2CN=C(Nc3nc4ccccc4s3)NC2)cc1` was tested, and the inhibition was inconclusive: -3.5%.
`Cc1nc2ccccc2c(=O)n1-c1cccnc1` was tested, and the inhibition was inconclusive: 2.1%.
`CC1(C)Cc2cccc(C(=O)Nc3ccncc3)c2O1` was tested, and the inhibition was inconclusive: 15.5%.
`Cn1c(=O)c(NC2CCCCC2)c2c3c(cccc31)C(=O)c1ccccc1-2` was tested, and the inhibition was active: 44.3%.
With `COc1cc(CN2C[C@@H](CO)O[C@@H](n3cnc4c(N5CCOCC5)ncnc43)C2)cc(OC)c1OC` the inhibition was inactive: -0.1%.
With `Cc1cc(C)c(OCCCCCNCCO)c(C)c1` the inhibition was inconclusive: -3.9%.
`CCOC(=O)c1c(-c2ccccc2)nc2ccc(C)cn12` was tested, and the inhibition was inconclusive: 1.3%.
`COc1cc(SC)ccc1C(=O)OCC(=O)NCCC1=CCCCC1` was tested, and the inhibition was inactive: 3.2%.
`CS(=O)(=O)Nc1ccc(C(=O)NCCC2=CCCCC2)cc1` was tested, and the inhibition was inconclusive: -4.1%.
In the case of `CN1C[C@@H]2[C@@H]3C(=O)N(C)C(=O)[C@@H]3[C@](C)(C1=O)N2C(=O)c1ccc(C(C)(C)C)cc1`, the inhibition is reported as inactive: -0.7%.
In the case of `COC(=O)c1ccc(Cl)c(NC(=O)CN2CCN(C)CC2)c1`, the inhibition is reported as inconclusive: -0.5%.
With `Cc1cn2c(N)c(/C=C3\C=Nc4ccccc43)c(=O)nc2s1` the inhibition was inconclusive: 5.5%.
With `O=C(Nc1ccccc1)N(Cc1cccnc1)Cc1ccco1` the inhibition was inconclusive: -0.1%.
For `CCCCC#Cc1cncc(C(=O)N/N=C/c2cccc(OC)c2)c1`, the inhibition was inconclusive: -9.3%.
With `COc1cc(C2=NOC(C(=O)N3CCOCC3)C2)cc(OC)c1OC` (stereo unspecified) the inhibition was inconclusive: -3.9%.
With `c1csc(-c2nnc(Cc3cccc4ccccc34)o2)c1` the inhibition was inconclusive: -3.8%.
`CC(C)(C)c1ccc(SCCc2ccccn2)cc1` was tested, and the inhibition was inconclusive: -24.7%.
`CCC(=O)Nc1ccc(Oc2ccc3c(c2)C(=O)N(c2ccc(O)cc2)C3=O)cc1` was tested, and the inhibition was inconclusive: 0.6%.
`CCOc1ccc(S(=O)(=O)NCCC(=O)NCCCSc2ccccc2)cc1` was tested, and the inhibition was inconclusive: -24.1%.
In the case of `CSc1sc(C(=O)NCC2CC2)c2c1S(=O)(=O)N(C)c1ccccc1-2`, the inhibition is reported as inconclusive: 17.7%.
`CCOC(=O)CSc1nc(-c2ccccc2)nc2ccc(F)cc12` was tested, and the inhibition was inconclusive: -3.7%.
In the case of `CCOc1ccccc1N1CC(C(=O)NNC(=O)c2ccc(F)cc2)CC1=O` (stereo unspecified), the inhibition is reported as inactive: 1.9%.
For `COc1cc(C(=O)Nc2sc(C(=O)N3CCOCC3)c(C)c2C#N)cc(OC)c1OC`, the inhibition was inactive: -0.3%.
`O=C(c1ccco1)N1CCN(CC(O)COc2ccc3oc4ccccc4c3c2)CC1` (stereo unspecified) was tested, and the inhibition was inconclusive: 2.3%.
`COc1cc2c(cc1OC)C(c1cc(Br)ccc1O)N(C(C)=O)CC2` (stereo unspecified) was tested, and the inhibition was inconclusive: 6.2%.
For `CC(C)Sc1nc(N)nc(-c2cccs2)c1C#N`, the inhibition was inactive: -0.1%.
For `CCc1ccc(-c2cc(C(F)(F)F)n3nc(C(=O)Nc4c(C)nn(Cc5ccccc5Cl)c4C)cc3n2)s1`, the inhibition was inconclusive: 38.2%.
With `CCn1c(=O)c(=O)[nH]c2cc(C(=O)NC3CCCc4ccccc43)ccc21` (stereo unspecified) the inhibition was inconclusive: 4.8%.
`COc1cccc2cc(C(=O)C3=C(O)C(=O)N(CCN4CCOCC4)C3c3ccc(Cl)cc3)oc12` (stereo unspecified) was tested, and the inhibition was inconclusive: -10.5%.
With `COc1ccc(C2/C(=C(\O)c3cccc(OC)c3)C(=O)C(=O)N2c2ccccn2)cc1` (stereo unspecified) the inhibition was inconclusive: -2.5%.
In the case of `CCc1ccc(S(=O)(=O)NCc2ccc(N3CCN(C)CC3)cc2)cc1`, the inhibition is reported as inconclusive: 3.3%.
For `Clc1cccc(CN2CCCCCC2)c1Cl`, the inhibition was inconclusive: -4.6%.
For `Cc1ccc(C)c(NC(=S)NCc2ccccc2)c1`, the inhibition was inconclusive: 3.5%.
With `Cc1c(Cl)cccc1NC(=S)NCCc1ccccn1` the inhibition was inconclusive: -4.7%.
In the case of `COc1ccc(-c2coc3c(C(=O)Nc4cccnc4)cccc23)c(C)c1`, the inhibition is reported as inactive: -0.1%.
With `CCOC(=O)CNc1nc(Cl)nc(N2CCCCC2)n1` the inhibition was inconclusive: 19.9%.
`COc1cccc(C(=O)N2CCN(c3ccc(N4CCOCC4)nn3)CC2)c1` was tested, and the inhibition was inconclusive: -3.9%.
For `COc1ccc(-c2csc(C(C)(O)c3cccc(F)c3)n2)cc1` (stereo unspecified), the inhibition was inactive: -0.3%.
With `COc1ccc(S(=O)(=O)N2CCC3(CC2)CC(=O)c2ccccc2O3)cc1OC` the inhibition was inconclusive: 3.9%.
In the case of `CCN(CCCNC(=O)Cn1ncc2c(=O)oc3ccccc3c21)c1cccc(C)c1`, the inhibition is reported as inactive: -0.6%.
`Cc1cc(-c2nsc(=O)o2)c(S(C)(=O)=O)s1` was tested, and the inhibition was inconclusive: -2.1%.
In the case of `O=S(=O)(NC1CCCC1)c1ccc(Br)s1`, the inhibition is reported as inconclusive: -2.1%.
With `CCOC(=O)c1cnc2c(C(=O)OC)cccc2c1NCCN1CCOCC1` the inhibition was inconclusive: 1.8%.
In the case of `CCCOc1ccc(/C=C/c2c([N+](=O)[O-])c(=O)n(C)c(=O)n2C)cc1`, the inhibition is reported as inconclusive: -3.1%.
With `CC(=O)Nc1nc2ccccc2n1CCN1CCOCC1` the inhibition was inconclusive: 1%.
For `Cc1cc(C(=O)CN2C(=O)NC(CCS(C)(=O)=O)C2=O)c(C)n1C1CC1` (stereo unspecified), the inhibition was inconclusive: -422%.
For `Cc1ccc(C)c(N(CC(=O)N/N=C/c2ccc(-c3ccc([N+](=O)[O-])cc3)o2)S(=O)(=O)c2ccccc2)c1`, the inhibition was active: 50%.
In the case of `Cc1ccccc1NC(=O)NCCCN1CCCC1`, the inhibition is reported as inconclusive: 0.8%.
`COC(=O)c1ccc(NC(=S)NC(=O)c2c(-c3ccccc3)noc2C)cc1` was tested, and the inhibition was inconclusive: -38.3%.
With `COc1cc2c(cc1OC)C(COc1cc(C)cc(C)c1)N(C(C)=O)CC2` (stereo unspecified) the inhibition was inactive: -3.2%.
In the case of `O=C(/C=C\c1ccc(-c2ccccc2)o1)c1ccccc1`, the inhibition is reported as active: 66.4%.
`Cc1ccc(OC(=O)c2cc(C)nn2C(C)(C)C)cc1` was tested, and the inhibition was inconclusive: -0.9%.
With `Cc1c(N2C(=O)C3C4C=CC(C4)C3C2=O)c(=O)n(-c2ccccc2)n1C` (stereo unspecified) the inhibition was inconclusive: -34.8%.
In the case of `CN(C)C(=S)SCCn1c(N)nc(N(C)C)nc1=O`, the inhibition is reported as inconclusive: -35.2%.
With `Cc1ccc(OCC(=O)Nc2ccc3c(c2)nc2n3CCOC2)cc1` the inhibition was inconclusive: -0.2%.
For `O=C(N/N=C/c1ccncc1)c1ccc(OCc2ccccc2)cc1`, the inhibition was inactive: -0.1%.
`O=C(Nc1ccccc1)O/N=C1/CCCc2occc21` was tested, and the inhibition was inconclusive: 5.4%.
With `COc1cccc(NC(=O)CSc2nc3c(c(-c4ccco4)c2C#N)CCCC3)c1` the inhibition was inconclusive: -1.3%.
`Cc1cc(OCC(=O)N[C@H](C(=O)O)c2ccccc2)c2c3c(c(=O)oc2c1)CCC3` was tested, and the inhibition was inactive: 0%.
In the case of `Cc1nc(COc2ccc(C(=O)NCc3ccccc3CN3CCCCC3)cc2)cs1`, the inhibition is reported as inconclusive: -4.3%.
With `COc1ccccc1N1C(=O)C2C(C(=O)c3ccccc3)=NN(c3ccccc3)C2C1=O` (stereo unspecified) the inhibition was inconclusive: 7.2%.
`Cc1ccc(-n2nc3c(c2NC(=O)c2c(-c4ccccc4Cl)noc2C)CS(=O)(=O)C3)c(C)c1` was tested, and the inhibition was inconclusive: -1.9%.
In the case of `CCc1cc(Br)ccc1NC(=S)NCCc1ccccc1`, the inhibition is reported as inactive: 1.7%.
In the case of `O=C(NC1CCCCC1)C(c1cccnc1)N(C(=O)c1csnn1)c1ccccc1` (stereo unspecified), the inhibition is reported as inactive: 2.7%.
For `COc1ccc(C)cc1NC(=O)CSc1nnc(-c2ccccn2)n1Cc1ccco1`, the inhibition was inconclusive: -4.6%.
In the case of `CC1Oc2ccc(C#N)cc2N(Cc2cccc(F)c2)C1=O` (stereo unspecified), the inhibition is reported as inactive: 0.3%.
In the case of `CCOc1cc(/C=C(/NC(C)=O)C(=O)O)cc(Cl)c1OCc1cccc(Br)c1`, the inhibition is reported as inactive: 0.5%.
For `CC(=O)Nc1nc(SCc2ccc(Cl)cc2Cl)n[nH]1`, the inhibition was inconclusive: 5.3%.
With `COc1ccc(-n2c(SCC(=O)NC3CCCCC3)nc3ccsc3c2=O)cc1` the inhibition was inconclusive: -1.9%.
For `CC1CN(C(=O)c2cc3ccccc3oc2=O)CC(C)O1` (stereo unspecified), the inhibition was inconclusive: 1.8%.
With `COc1ccccc1OCc1nnc(SCCN2CCOCC2)o1` the inhibition was inconclusive: -1.3%.
In the case of `CC(C)Oc1ccc(C(=O)NCc2cccs2)cc1`, the inhibition is reported as inconclusive: -0.9%.
In the case of `O=C(NCCc1ccco1)C(=O)NCC1CCCN1S(=O)(=O)c1ccccc1` (stereo unspecified), the inhibition is reported as inconclusive: -0.3%.
With `Cc1cccc(NC(=O)Cc2ccc(Br)cc2)n1` the inhibition was inconclusive: -5.7%.
For `C(/C=C/c1ccccc1)=N/N1CCN(c2ccccc2)CC1`, the inhibition was inconclusive: -5.6%.
`c1ccc(-c2cn3c(n2)-c2ccccc2C3)cc1` was tested, and the inhibition was inactive: 0.5%.
In the case of `COc1ccccc1CCNC(=O)c1ccc(C)o1`, the inhibition is reported as inconclusive: -4%.
For `CCOC(=O)N1CCC(NC(=O)CSCc2nc(-c3ccc(OC)c(OC)c3)oc2C)CC1`, the inhibition was inconclusive: -0.4%.
